Reference: publication doi:10.1101/2023.09.08.556779, “Molecular model of a bacterial flagellar motor in situ reveals a “parts-list” of protein adaptations to increase torque” (bioRxiv, 2024)

Sequences of proteins named here, by UniProt entry; tags and fusion partners are left off. A change or cut given only in a name is not applied to a line headed by its entry.
UniProt Q0PA06: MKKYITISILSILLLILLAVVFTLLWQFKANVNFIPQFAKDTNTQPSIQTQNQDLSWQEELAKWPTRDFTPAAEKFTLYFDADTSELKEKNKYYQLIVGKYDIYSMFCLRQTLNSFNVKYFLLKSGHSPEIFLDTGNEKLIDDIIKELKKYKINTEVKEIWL

Target: T1, PflB-3xFLAG (C. jejuni NCTC11168)
T1 sequence: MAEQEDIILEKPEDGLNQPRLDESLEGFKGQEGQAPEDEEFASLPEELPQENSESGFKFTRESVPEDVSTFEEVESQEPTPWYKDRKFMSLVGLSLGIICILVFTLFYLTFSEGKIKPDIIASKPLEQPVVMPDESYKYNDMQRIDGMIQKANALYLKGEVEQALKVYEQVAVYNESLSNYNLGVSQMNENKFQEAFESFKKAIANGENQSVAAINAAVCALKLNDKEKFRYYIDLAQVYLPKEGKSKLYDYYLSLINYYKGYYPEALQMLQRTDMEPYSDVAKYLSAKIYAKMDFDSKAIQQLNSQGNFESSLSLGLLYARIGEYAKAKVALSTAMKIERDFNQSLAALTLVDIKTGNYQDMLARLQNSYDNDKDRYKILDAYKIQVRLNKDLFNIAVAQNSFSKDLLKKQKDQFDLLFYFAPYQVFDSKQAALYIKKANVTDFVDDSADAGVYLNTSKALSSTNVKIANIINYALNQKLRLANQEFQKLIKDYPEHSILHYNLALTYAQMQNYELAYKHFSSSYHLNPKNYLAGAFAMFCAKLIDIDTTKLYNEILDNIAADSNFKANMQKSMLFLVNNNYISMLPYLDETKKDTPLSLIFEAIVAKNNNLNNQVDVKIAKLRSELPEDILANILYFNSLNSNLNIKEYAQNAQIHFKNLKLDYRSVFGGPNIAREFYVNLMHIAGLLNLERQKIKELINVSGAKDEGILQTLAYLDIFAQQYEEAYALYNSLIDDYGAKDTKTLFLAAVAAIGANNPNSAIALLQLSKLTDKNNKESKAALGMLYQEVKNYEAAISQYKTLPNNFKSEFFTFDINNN
Test: co-IP; C. jejuni NCTC11168 with chromosomal 3xFLAG fusions; cleared lysate (buffer A with Triton X-100), anti-FLAG antibody and Protein A-Sepharose, 4 C; western blot with FlgP antisera or anti-GFP

PflD-sfGFP (from UniProt Q0PA06)
binding: binds

No constants are given. Whether binding was seen depends on the method and setting. Binding seen in cells or lysates may run through a third protein. Binding calls can cover weak binding; strength is not graded here. Sequences can lack the tags named with a protein.
